Results deposited as PubChem BioAssay AID1224828 (NIAID, 2016)
Aim: 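Knock-downs that increase or decrease LPS-induced p65 nuclear translocation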 (primary screen). System: mouse RAW264.7 G9 macrophage reporter cells (GFP-p65, Tnf promoter-mCherry). Knock-down reagent: siRNA pool against mouse genes, 100 nM. Time to read-out: 2 days siRNA transfection, then 40 min LPS before fixation. Challenge: LPS (Salmonella minnesota R595) at 10 ng/ml. Detection: 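Microscopy ratio of nuclear to perinuclear-ring GFP-p65 signal, scaled to the plate median; gene score is the average of two replicate robust z-scores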. Direction: p65 translocation robust z-score: higher = more nuclear NF-kappaB p65 after LPS than the plate median; nuclear/cytoplasmic p65 ratio: higher = more nuclear NF-kappaB p65. Hit rule: 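Active if robust z is above 3.3 (negative regulators) or below -1.56, the Tlr4 control median (positive regulators); activity score 50 or more; control wells not called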. Meaning of the calls: active = hit (p65 shift raised or lowered); inactive = no clear change.
The whole screen tested about 17,000 reagents; this is a part drawn at random. Over the whole deposit, 762 (4.5%) were called active. 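Active calls include both raised and lowered p65 entry, mostly lowered; wells with fewer than 50 cells lack a z-score.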 Raw values are not corrected between plates. Reagents against one gene are numbered here.

| target gene | pool no. | p65 translocation robust z-score | nuclear/cytoplasmic p65 ratio, rep 1 | nuclear/cytoplasmic p65 ratio, rep 2 | low cell count flag | activity call |
| --- | --- | --- | --- | --- | --- | --- |
| Sucla2 | 1 | 0.37 | 1.44 | 1.29 | enough cells to score | inactive |
| Prag1 | 1 | -1.67 | 1.46 | 1.14 | enough cells to score | active |
| Or8g23 | 1 | 0.19 | 1.45 | 1.27 | enough cells to score | inactive |
| Cope | 1 | -0.33 | 1.51 | 1.75 | enough cells to score | inactive |
| Zfp871 | 1 | -0.1 | 1.44 | 1.5 | enough cells to score | inactive |
| Ilf2 | 1 | -1.1 | 1.37 | 1.2 | enough cells to score | inactive |
| Smarcb1 | 1 | -0.11 | 1.56 | 1.51 | enough cells to score | inactive |
| Vmn1r43 | 1 | – | 1.26 | 1.2 | fewer than 50 cells per well; well left out of scoring | inactive |
| Ube2c | 1 | -0.54 | 1.42 | 1.44 | enough cells to score | inactive |
| Ccdc158 | 1 | -0.67 | 1.21 | 1.2 | enough cells to score | inactive |
| Gstm4 | 1 | 1.22 | 1.86 | 1.69 | enough cells to score | inactive |
| Sprr2a1 | 1 | -1.41 | 1.26 | 1.05 | enough cells to score | inactive |
| Hacl2 | 1 | – | 1.34 | 1.2 | fewer than 50 cells per well; well left out of scoring | inactive |
| Zbtb7c | 1 | 0.06 | 1.4 | 1.59 | enough cells to score | inactive |
| Klhl8 | 1 | 2.23 | 1.89 | 1.71 | enough cells to score | inactive |
| Cbx1 | 1 | 1.21 | 1.64 | 1.53 | enough cells to score | inactive |
| Dpagt1 | 1 | – | 1.39 | 1.44 | fewer than 50 cells per well; well left out of scoring | inactive |
| Parp9 | 1 | 0.27 | 1.67 | 1.83 | enough cells to score | inactive |
| Acsl1 | 1 | – | 1.19 | 1.38 | fewer than 50 cells per well; well left out of scoring | inactive |
| Or6c206 | 1 | – | 1.33 | 1.15 | fewer than 50 cells per well; well left out of scoring | inactive |
| Prss16 | 1 | -1.38 | 1.32 | 1.21 | enough cells to score | inactive |
| Mark3 | 1 | -1.45 | 1.29 | 1.19 | enough cells to score | inactive |
| Il2rb | 1 | 0.73 | 1.58 | 1.47 | enough cells to score | inactive |
| Extl2 | 1 | 0.69 | 1.6 | 1.42 | enough cells to score | inactive |
| Gjc2 | 1 | -0.98 | 1.21 | 1.33 | enough cells to score | inactive |
| Insr | 1 | -0.62 | 1.61 | 1.28 | enough cells to score | inactive |
| Cyb561 | 1 | 0.5 | 1.67 | 1.84 | enough cells to score | inactive |

Next part (5 carried over from the part before).
| target gene | pool no. | p65 translocation robust z-score | nuclear/cytoplasmic p65 ratio, rep 1 | nuclear/cytoplasmic p65 ratio, rep 2 | low cell count flag | activity call |
| --- | --- | --- | --- | --- | --- | --- |
| Il2rb | 1 | 0.73 | 1.58 | 1.47 | enough cells to score | inactive |
| Extl2 | 1 | 0.69 | 1.6 | 1.42 | enough cells to score | inactive |
| Gjc2 | 1 | -0.98 | 1.21 | 1.33 | enough cells to score | inactive |
| Insr | 1 | -0.62 | 1.61 | 1.28 | enough cells to score | inactive |
| Cyb561 | 1 | 0.5 | 1.67 | 1.84 | enough cells to score | inactive |
| 1600014C10Rik | 1 | 0.46 | 1.66 | 1.46 | enough cells to score | inactive |
| Hsp90ab1 | 1 | -0.74 | 1.34 | 1.28 | enough cells to score | inactive |
| Ric8b | 1 | -0.66 | 1.58 | 1.48 | enough cells to score | inactive |
| Chst8 | 1 | -0.31 | 1.54 | 1.74 | enough cells to score | inactive |
| Kdelr3 | 1 | 1.24 | 1.61 | 1.57 | enough cells to score | inactive |
| Scaf11 | 1 | -0.22 | 1.54 | 1.62 | enough cells to score | inactive |
| Sec16a | 1 | 0.33 | 1.6 | 1.63 | enough cells to score | inactive |
| Serpinb8 | 1 | – | 1.28 | 1.08 | fewer than 50 cells per well; well left out of scoring | inactive |
| Vmn1r234 | 1 | – | 1.66 | 1.41 | fewer than 50 cells per well; well left out of scoring | inactive |
| Capn2 | 1 | 0.06 | 1.61 | 1.64 | enough cells to score | inactive |
| Or4k36 | 1 | 0.54 | 1.63 | 1.55 | enough cells to score | inactive |
| Nagpa | 1 | -1.82 | 1.53 | 1.29 | enough cells to score | active |
| Fadd | 1 | -0.45 | 1.41 | 1.3 | enough cells to score | inactive |
| Txn2 | 1 | – | 1.34 | 1.1 | fewer than 50 cells per well; well left out of scoring | inactive |
| Mustn1 | 1 | 0.16 | 1.77 | 1.65 | enough cells to score | inactive |
| Tcof1 | 1 | 0.89 | 1.69 | 1.59 | enough cells to score | inactive |
| Hmgcs1 | 1 | -0.59 | 1.28 | 1.31 | enough cells to score | inactive |
| Chmp2b | 1 | -0.51 | 1.39 | 1.29 | enough cells to score | inactive |
| Tnip2 | 1 | 1.74 | 2.15 | 1.38 | enough cells to score | inactive |
| C130021I20Rik | 1 | 0.26 | 1.49 | 1.53 | enough cells to score | inactive |
| Med9 | 1 | -0.12 | 1.61 | 1.82 | enough cells to score | inactive |
| Foxa2 | 1 | 0.76 | 1.56 | 1.44 | enough cells to score | inactive |
| Ramp2 | 1 | 0.21 | 1.56 | 1.53 | enough cells to score | inactive |
| Capn8 | 1 | -0.82 | 1.44 | 1.69 | enough cells to score | inactive |
| Uba1y | 1 | – | 1.41 | 1.34 | fewer than 50 cells per well; well left out of scoring | inactive |
| Stk38l | 1 | 0.94 | 1.49 | 1.5 | enough cells to score | inactive |
| Ppil2 | 1 | -0.33 | 1.36 | 1.16 | enough cells to score | inactive |
| Il17rc | 1 | – | 1.34 | 1.26 | fewer than 50 cells per well; well left out of scoring | inactive |
| Gcdh | 1 | -1.1 | 1.26 | 1.26 | enough cells to score | inactive |
| Ntrk3 | 1 | 0.39 | – | 1.43 | enough cells to score | inactive |
| Tyw3 | 1 | 1.21 | 1.52 | 1.37 | enough cells to score | inactive |
| Rad51b | 1 | -0.45 | 1.36 | 1.13 | enough cells to score | inactive |
| Irx1 | 1 | 1.32 | 1.71 | 1.63 | enough cells to score | inactive |
| Tnfrsf10b | 1 | -1.76 | 1.46 | 1.12 | enough cells to score | active |
| Or6c3b | 1 | – | 1.41 | 0.875 | fewer than 50 cells per well; well left out of scoring | inactive |
| Mrgprb4 | 1 | 1.21 | 1.92 | 1.83 | enough cells to score | inactive |
| Rps11 | 1 | – | 1.12 | 1.06 | fewer than 50 cells per well; well left out of scoring | inactive |
| Fndc7 | 1 | 0.75 | 1.58 | 1.44 | enough cells to score | inactive |
| Enpp4 | 1 | -0.42 | 1.33 | 1.3 | enough cells to score | inactive |
| Grik3 | 1 | -0.64 | 1.38 | 1.26 | enough cells to score | inactive |
| Tmem255a | 1 | 1.94 | 1.92 | 1.76 | enough cells to score | inactive |
| Elovl4 | 1 | -1.96 | 1.33 | 1.3 | enough cells to score | active |
| Or51ac3 | 1 | -0.7 | 1.38 | 1.16 | enough cells to score | inactive |
| Cldn23 | 1 | -0.24 | 1.45 | 1.74 | enough cells to score | inactive |
| 9930022D16Rik | 1 | -0.83 | 1.27 | 1.47 | enough cells to score | inactive |
| Or4d2 | 1 | – | 1.02 | 1.02 | fewer than 50 cells per well; well left out of scoring | inactive |
| Sike1 | 1 | – | 1.48 | 1.45 | fewer than 50 cells per well; well left out of scoring | inactive |
| Sike1 | 2 | – | 1.32 | 1.08 | fewer than 50 cells per well; well left out of scoring | inactive |
